The list shows a part of the results. Single values are uncertain, as repeats are few or missing.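 The apoptosis fraction was the count of cleaved-PARP antibody-stained nuclei relative to all DNA-stained nuclei, imaged in 1,536-well plates. Screening doses were set so most cells survived, and baseline and induced cleaved-PARP levels vary greatly across cell lines.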
Test system: UACC62
Experiment: cleaved PARP positive nuclei fraction relative to DMSO control; melanoma cells; higher = more apoptosis
Conditions: library dose: low library concentration; 72 h

Row | Structure (SMILES) | cleaved PARP positive nuclei fraction [%]
1 | Cc1cc(SCc2sc(-c3ccc(C(F)(F)F)c(F)c3)nc2C)ccc1OCC(=O)O + c1cc(-c2cnn3cc(-c4ccc(OCCN5CCCCC5)cc4)cnc23)ccn1 [Dorsomorphin] (first compound 2 µM, partner dose 0.4 µM) | 172
2 | C[C@]12O[C@H](C[C@]1(O)CO)n1c3ccccc3c3c4c(c5c6ccccc6n2c5c31)CNC4=O [Lestaurtinib] + C[C@@H]1CCN(C(=O)CC#N)C[C@@H]1N(C)c1ncnc2[nH]ccc12 [CP690550] (first compound 0.004 µM, partner dose 1 µM) | 85.4
3 | O=S(=O)(c1ccccc1)N(CC(F)(F)F)c1ccc(C(O)(C(F)(F)F)C(F)(F)F)cc1 + O=C(Oc1ccc([N+](=O)[O-])cc1)N1CCC(C(O)(c2ccc3c(c2)OCO3)c2ccc3c(c2)OCO3)CC1 [JZL184] (first compound 1.4 µM, partner dose 1 µM) | 137
4 | CCN(CC)CCCCNc1ncc2cc(-c3cc(OC)cc(OC)c3)c(NC(=O)NC(C)(C)C)nc2n1 + C/C(O)=C(\C#N)C(=O)Nc1cc(Br)ccc1Br [LFM-A13] (first compound 0.1 µM, partner dose 2 µM) | 139
5 | CC(C)(C)c1cnc(CSc2cnc(NC(=O)C3CCNCC3)s2)o1 + O=C(Oc1ccc([N+](=O)[O-])cc1)N1CCC(C(O)(c2ccc3c(c2)OCO3)c2ccc3c(c2)OCO3)CC1 [JZL184] (first compound 0.01 µM, partner dose 1 µM) | 129
6 | C[As](C)SC[C@H](NC(=O)CC[C@H](N)C(=O)O)C(=O)NCC(=O)O [Darinaparsin] + O=C(O)C(=O)Nc1sc2c(c1C(=O)O)CCNC2 [TCS401] (first compound 0.4 µM, partner dose 1.66667 µM) | 50.5
7 | CCN(CC)CCCCNc1ncc2cc(-c3cc(OC)cc(OC)c3)c(NC(=O)NC(C)(C)C)nc2n1 + O=C(Oc1ccc([N+](=O)[O-])cc1)N1CCC(C(O)(c2ccc3c(c2)OCO3)c2ccc3c(c2)OCO3)CC1 [JZL184] (first compound 0.1 µM, partner dose 1 µM) | 90.2
8 | C[As](C)SC[C@H](NC(=O)CC[C@H](N)C(=O)O)C(=O)NCC(=O)O [Darinaparsin] + Cc1cc(SCc2sc(-c3ccc(C(F)(F)F)c(F)c3)nc2C)ccc1OCC(=O)O [GW0742] (first compound 0.4 µM, partner dose 2 µM) | 143
9 | CCc1ccc(CCOc2ccc(CC3SC(=O)NC3=O)cc2)nc1 (centres undefined) [pioglitazone] + C/C(O)=C(\C#N)C(=O)Nc1cc(Br)ccc1Br [LFM-A13] (first compound 2 µM, partner dose 2 µM) | 43.6
10 | CO[C@@H]1[C@H](N(C)C(=O)c2ccccc2)C[C@H]2O[C@]1(C)n1c3ccccc3c3c4c(c5c6ccccc6n2c5c31)C(=O)NC4 [Midostaurin] + C/C(O)=C(\C#N)C(=O)Nc1cc(Br)ccc1Br [LFM-A13] (first compound 0.08 µM, partner dose 2 µM) | 92.9
11 | c1cc(-c2cnn3cc(-c4ccc(OCCN5CCCCC5)cc4)cnc23)ccn1 [Dorsomorphin] + O=C(Oc1ccc([N+](=O)[O-])cc1)N1CCC(C(O)(c2ccc3c(c2)OCO3)c2ccc3c(c2)OCO3)CC1 [JZL184] (first compound 0.4 µM, partner dose 1 µM) | 50.7
12 | Cc1cc(SCc2sc(-c3ccc(C(F)(F)F)c(F)c3)nc2C)ccc1OCC(=O)O + Cn1cc(/C=C2\C(=O)Nc3cccnc32)c2ccccc21 [GW441756] (first compound 2 µM, partner dose 0.4 µM) | 112
13 | C[C@]12O[C@H](C[C@]1(O)CO)n1c3ccccc3c3c4c(c5c6ccccc6n2c5c31)CNC4=O [Lestaurtinib] + C/C(O)=C(\C#N)C(=O)Nc1cc(Br)ccc1Br [LFM-A13] (first compound 0.004 µM, partner dose 2 µM) | 194
14 | C[As](C)SC[C@H](NC(=O)CC[C@H](N)C(=O)O)C(=O)NCC(=O)O [Darinaparsin] + COc1cc2ncnc(Nc3ccc(Oc4ccccc4)cc3)c2cc1OC [SrcI1] (first compound 0.4 µM, partner dose 2 µM) | 64.6

Reprinted: entries 9–10
Row | Structure (SMILES) | cleaved PARP positive nuclei fraction [%]
9 | CCc1ccc(CCOc2ccc(CC3SC(=O)NC3=O)cc2)nc1 (centres undefined) [pioglitazone] + C/C(O)=C(\C#N)C(=O)Nc1cc(Br)ccc1Br [LFM-A13] (first compound 2 µM, partner dose 2 µM) | 43.6
10 | CO[C@@H]1[C@H](N(C)C(=O)c2ccccc2)C[C@H]2O[C@]1(C)n1c3ccccc3c3c4c(c5c6ccccc6n2c5c31)C(=O)NC4 [Midostaurin] + C/C(O)=C(\C#N)C(=O)Nc1cc(Br)ccc1Br [LFM-A13] (first compound 0.08 µM, partner dose 2 µM) | 92.9

From the supplement of paper PMC4604168 (melanoma cell lines)
